In paper PMC9369419 (International Journal of Molecular Sciences, 2022) one finds Ki data, which are given here for 1 compound.

The chains behind the UniProt entries cited, without tags or fusion partners. Residues count along the entry.
UniProt P22756, 31-949 limits assumed: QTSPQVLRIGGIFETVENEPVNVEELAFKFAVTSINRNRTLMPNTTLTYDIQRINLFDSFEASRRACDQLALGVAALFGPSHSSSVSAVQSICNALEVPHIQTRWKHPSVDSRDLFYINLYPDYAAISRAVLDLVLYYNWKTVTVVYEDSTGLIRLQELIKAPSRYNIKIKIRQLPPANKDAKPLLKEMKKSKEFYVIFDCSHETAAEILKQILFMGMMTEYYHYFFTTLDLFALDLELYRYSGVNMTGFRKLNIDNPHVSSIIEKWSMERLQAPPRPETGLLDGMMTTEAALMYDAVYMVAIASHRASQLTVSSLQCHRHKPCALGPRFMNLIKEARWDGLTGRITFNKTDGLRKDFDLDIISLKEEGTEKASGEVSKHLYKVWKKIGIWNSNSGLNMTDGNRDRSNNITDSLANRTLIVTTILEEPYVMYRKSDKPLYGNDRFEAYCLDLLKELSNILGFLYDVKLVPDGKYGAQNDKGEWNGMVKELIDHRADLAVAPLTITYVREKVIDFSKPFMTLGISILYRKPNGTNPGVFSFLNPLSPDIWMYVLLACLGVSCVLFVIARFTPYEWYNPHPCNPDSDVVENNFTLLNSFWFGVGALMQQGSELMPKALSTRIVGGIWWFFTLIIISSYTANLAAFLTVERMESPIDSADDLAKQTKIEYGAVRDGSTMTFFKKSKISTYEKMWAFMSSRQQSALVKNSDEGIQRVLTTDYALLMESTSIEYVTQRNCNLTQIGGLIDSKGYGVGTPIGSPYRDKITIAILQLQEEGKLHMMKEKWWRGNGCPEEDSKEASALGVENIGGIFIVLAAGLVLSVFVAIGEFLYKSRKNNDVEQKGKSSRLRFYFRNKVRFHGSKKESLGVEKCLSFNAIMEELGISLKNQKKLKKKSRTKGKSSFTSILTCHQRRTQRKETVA
UniProt P19491, 22-883 limits assumed: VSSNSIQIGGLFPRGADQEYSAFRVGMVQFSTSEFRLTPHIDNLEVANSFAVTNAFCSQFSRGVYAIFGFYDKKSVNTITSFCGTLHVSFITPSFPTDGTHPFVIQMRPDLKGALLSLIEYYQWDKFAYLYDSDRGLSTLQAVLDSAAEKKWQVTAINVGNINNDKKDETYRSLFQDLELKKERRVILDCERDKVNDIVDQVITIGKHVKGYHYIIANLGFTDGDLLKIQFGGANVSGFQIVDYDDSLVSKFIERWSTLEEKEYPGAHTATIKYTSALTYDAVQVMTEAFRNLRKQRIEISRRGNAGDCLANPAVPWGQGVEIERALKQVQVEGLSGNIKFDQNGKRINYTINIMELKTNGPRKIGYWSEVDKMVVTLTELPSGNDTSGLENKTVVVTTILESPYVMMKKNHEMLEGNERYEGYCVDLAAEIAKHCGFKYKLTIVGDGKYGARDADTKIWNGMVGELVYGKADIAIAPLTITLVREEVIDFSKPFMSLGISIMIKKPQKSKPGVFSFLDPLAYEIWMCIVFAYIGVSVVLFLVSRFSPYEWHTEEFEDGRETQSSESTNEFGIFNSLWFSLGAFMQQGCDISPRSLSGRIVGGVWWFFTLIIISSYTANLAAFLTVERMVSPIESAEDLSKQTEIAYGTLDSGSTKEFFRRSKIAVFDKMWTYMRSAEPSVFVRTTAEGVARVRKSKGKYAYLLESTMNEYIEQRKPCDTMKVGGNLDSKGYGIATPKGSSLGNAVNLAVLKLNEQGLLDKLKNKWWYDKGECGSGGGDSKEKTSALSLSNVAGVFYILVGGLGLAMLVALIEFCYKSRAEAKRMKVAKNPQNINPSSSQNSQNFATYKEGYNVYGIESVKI
UniProt P42264, 32-919 limits assumed: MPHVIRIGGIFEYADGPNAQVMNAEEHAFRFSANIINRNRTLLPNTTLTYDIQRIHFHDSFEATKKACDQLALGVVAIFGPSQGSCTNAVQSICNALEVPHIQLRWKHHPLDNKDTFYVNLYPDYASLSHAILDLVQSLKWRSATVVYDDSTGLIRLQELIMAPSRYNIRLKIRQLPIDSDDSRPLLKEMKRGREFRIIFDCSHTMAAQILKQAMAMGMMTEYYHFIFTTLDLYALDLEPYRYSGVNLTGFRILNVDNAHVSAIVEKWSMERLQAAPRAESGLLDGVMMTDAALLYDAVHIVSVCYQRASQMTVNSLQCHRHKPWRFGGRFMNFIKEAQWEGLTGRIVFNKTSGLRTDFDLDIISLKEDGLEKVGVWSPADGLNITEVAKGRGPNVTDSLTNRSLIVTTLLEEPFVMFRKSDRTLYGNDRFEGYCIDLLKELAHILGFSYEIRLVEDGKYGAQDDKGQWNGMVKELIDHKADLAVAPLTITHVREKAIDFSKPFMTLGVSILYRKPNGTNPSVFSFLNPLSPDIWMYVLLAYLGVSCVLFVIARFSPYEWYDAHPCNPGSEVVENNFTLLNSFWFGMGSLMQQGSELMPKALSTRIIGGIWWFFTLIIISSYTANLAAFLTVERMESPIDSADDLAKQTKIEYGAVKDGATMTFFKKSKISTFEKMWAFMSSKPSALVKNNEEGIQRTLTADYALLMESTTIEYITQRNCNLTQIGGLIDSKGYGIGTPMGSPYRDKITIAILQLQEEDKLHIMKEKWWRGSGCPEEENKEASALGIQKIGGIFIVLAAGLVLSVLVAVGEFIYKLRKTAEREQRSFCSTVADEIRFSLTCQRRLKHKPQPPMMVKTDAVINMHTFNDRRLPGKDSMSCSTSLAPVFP
UniProt P42260, 32-908 limits assumed: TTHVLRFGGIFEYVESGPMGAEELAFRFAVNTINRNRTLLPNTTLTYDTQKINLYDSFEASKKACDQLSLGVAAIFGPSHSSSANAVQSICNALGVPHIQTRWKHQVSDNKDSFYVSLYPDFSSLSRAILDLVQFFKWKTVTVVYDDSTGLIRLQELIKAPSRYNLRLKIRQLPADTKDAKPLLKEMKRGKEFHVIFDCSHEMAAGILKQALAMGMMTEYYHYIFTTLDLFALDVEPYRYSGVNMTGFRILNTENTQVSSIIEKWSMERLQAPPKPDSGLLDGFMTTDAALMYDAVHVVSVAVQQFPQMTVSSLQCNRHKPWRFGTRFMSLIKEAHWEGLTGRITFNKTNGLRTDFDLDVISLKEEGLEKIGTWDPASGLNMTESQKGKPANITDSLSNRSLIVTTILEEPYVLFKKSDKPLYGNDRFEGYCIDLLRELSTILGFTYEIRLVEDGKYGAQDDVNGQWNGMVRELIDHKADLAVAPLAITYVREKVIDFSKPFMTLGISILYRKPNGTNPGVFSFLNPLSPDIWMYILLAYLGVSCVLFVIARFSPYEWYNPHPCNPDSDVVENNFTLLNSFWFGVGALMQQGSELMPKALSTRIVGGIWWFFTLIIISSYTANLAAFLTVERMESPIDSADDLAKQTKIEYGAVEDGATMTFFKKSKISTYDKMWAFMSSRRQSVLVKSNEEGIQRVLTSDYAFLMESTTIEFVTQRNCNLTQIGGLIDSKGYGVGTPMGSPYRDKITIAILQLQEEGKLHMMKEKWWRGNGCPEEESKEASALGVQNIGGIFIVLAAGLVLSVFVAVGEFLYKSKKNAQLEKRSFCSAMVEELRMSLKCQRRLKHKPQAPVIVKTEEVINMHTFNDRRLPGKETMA
UniProt Q63273, 15-979 limits assumed: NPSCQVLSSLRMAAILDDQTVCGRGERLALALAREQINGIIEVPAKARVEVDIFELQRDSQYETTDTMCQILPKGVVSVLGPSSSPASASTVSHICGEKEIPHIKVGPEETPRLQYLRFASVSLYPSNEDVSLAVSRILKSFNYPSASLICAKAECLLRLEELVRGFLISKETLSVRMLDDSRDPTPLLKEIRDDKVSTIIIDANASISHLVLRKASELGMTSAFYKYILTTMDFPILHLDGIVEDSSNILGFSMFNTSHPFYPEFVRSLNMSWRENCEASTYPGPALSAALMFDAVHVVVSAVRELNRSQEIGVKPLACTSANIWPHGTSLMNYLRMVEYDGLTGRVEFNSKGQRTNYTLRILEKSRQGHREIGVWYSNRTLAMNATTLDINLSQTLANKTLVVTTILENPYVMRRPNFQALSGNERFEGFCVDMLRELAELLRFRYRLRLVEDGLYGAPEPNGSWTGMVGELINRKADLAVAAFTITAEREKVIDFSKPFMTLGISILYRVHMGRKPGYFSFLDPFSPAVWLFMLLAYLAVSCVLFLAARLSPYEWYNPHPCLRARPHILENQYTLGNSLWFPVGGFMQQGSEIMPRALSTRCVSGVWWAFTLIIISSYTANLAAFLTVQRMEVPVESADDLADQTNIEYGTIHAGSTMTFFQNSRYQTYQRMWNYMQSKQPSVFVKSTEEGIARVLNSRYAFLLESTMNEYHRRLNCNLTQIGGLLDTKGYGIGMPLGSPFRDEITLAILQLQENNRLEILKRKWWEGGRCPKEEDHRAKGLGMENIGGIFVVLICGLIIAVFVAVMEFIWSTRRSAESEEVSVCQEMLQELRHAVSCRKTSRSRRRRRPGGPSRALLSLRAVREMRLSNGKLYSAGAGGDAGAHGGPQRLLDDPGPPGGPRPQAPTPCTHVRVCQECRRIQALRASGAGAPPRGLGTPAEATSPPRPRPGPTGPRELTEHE

The structures given here were assigned with low confidence; some may be wrong.

In one test the target is GluK1 (Rattus norvegicus, UniProt P22756). Nature of the test: Radioligand binding at recombinant homomeric GluK1 in Sf9 membranes. As to conditions: read-out: Ki GluK1, recombinant rat homomeric receptor, [3H]-(S)-NF608, mean ± SEM, tested form: 2 H2O.
The next test concerns the target GluA2 (Rattus norvegicus, UniProt P19491). Nature of the test: Radioligand binding at recombinant homomeric GluA2 in Sf9 membranes. The following applies: read-out: Ki GluA2, recombinant rat homomeric receptor, [3H]-(RS)-AMPA, mean ± SEM, tested form: 2 H2O.
The next test addresses GluK3 (Rattus norvegicus, UniProt P42264). Nature of the test: Radioligand binding at recombinant homomeric GluK3 in Sf9 membranes. The following applies: read-out: Ki GluK3, recombinant rat homomeric receptor, [3H]-kainic acid, mean ± SEM, tested form: 2 H2O.
The next test addresses GluK2 (Rattus norvegicus, UniProt P42260). The experiment in a line: Radioligand binding at recombinant homomeric GluK2 in Sf9 membranes. As to conditions: read-out: Ki GluK2, recombinant rat homomeric receptor, [3H]-kainic acid, mean ± SEM, tested form: 2 H2O.
The target in the next test is GluK5 (Rattus norvegicus, UniProt Q63273). The experiment in a line: Radioligand binding at recombinant homomeric GluK5 in Sf9 membranes. The following applies: read-out: Ki GluK5, recombinant rat homomeric receptor, [3H]-kainic acid, mean ± SEM, tested form: 2 H2O.

With `O=C(Nn1c(=O)c(=O)[nH]c2cc(C#Cc3ccc(S(=O)(=O)F)cc3)ccc21)c1ccccc1`, the Ki on GluK1 was 1.1 µM; on GluA2, 100 µM; at GluK3, 8.1 µM; on GluK2, > 100 µM; at GluK5 it was > 100 µM.
